# Some of the results follow.
# The chains behind the UniProt entries cited, without tags or fusion partners. Where a name states a change or a piece, a line headed by the entry shows the natural chain unless it says otherwise.
# UniProt O60942: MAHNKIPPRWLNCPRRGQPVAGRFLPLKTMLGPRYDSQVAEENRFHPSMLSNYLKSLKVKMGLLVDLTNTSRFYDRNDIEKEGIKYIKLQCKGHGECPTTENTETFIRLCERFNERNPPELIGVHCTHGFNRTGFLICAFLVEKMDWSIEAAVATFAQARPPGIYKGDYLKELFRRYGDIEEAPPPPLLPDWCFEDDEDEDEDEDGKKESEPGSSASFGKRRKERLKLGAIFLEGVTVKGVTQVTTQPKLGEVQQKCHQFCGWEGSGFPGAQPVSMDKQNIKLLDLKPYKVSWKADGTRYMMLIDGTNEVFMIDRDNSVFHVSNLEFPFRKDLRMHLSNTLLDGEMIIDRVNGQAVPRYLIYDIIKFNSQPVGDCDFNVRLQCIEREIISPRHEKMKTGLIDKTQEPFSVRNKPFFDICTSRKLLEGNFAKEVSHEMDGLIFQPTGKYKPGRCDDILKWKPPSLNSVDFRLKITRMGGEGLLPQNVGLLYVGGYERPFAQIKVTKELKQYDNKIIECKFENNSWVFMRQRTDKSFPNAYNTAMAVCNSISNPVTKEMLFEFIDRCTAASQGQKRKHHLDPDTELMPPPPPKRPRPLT
# UniProt P04843: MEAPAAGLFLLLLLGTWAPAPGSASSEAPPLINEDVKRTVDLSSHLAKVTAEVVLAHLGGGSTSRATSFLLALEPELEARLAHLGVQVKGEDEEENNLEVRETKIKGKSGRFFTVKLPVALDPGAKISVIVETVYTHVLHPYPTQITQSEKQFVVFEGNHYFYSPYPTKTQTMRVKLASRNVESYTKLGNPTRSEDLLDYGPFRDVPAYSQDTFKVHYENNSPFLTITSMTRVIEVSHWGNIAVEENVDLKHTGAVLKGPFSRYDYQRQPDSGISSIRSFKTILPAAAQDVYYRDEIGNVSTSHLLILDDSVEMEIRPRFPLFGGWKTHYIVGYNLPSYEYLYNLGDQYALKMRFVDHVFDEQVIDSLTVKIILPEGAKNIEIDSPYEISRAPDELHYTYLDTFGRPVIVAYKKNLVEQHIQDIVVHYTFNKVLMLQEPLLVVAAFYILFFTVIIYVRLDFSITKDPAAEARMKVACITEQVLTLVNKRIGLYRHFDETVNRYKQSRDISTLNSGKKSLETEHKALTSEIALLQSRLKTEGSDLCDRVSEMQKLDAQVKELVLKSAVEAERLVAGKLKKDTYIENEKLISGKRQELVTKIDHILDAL
# UniProt Q5VTR2, whole entry, looked up: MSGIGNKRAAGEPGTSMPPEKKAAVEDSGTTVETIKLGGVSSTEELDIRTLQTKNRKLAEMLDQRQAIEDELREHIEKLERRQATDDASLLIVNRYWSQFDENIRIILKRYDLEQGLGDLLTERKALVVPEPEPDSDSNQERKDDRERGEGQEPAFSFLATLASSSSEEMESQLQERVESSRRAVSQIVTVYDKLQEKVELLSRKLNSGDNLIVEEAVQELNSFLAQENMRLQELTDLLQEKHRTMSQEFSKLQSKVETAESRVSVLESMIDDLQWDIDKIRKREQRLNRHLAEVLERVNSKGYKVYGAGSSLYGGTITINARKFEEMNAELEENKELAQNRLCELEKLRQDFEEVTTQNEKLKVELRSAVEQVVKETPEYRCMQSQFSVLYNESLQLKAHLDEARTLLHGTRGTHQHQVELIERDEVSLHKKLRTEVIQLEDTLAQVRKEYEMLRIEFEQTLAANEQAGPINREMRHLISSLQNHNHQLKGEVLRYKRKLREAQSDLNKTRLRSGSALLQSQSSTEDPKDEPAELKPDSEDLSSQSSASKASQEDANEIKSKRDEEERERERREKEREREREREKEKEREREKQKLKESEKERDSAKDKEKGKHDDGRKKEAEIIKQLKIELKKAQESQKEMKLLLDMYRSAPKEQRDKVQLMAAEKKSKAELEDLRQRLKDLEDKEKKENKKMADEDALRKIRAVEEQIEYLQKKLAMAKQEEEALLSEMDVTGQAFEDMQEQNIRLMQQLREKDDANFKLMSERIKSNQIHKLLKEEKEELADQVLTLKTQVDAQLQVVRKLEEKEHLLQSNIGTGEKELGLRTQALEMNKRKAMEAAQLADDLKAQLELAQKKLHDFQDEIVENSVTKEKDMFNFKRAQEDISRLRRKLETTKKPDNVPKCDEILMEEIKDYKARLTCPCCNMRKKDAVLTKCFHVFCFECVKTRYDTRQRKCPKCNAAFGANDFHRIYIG
# UniProt P35244: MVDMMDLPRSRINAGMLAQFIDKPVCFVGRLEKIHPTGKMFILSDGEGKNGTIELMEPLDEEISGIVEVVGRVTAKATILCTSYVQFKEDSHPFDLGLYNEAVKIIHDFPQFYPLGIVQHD
# UniProt P78345: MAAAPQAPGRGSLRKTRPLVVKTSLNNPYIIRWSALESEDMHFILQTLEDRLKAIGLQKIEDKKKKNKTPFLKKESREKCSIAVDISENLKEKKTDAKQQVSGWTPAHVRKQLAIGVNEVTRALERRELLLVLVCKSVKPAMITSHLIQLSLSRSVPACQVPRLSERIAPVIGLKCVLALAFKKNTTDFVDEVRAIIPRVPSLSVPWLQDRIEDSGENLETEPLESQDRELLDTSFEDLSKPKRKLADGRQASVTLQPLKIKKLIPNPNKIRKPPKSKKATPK
# UniProt P13489: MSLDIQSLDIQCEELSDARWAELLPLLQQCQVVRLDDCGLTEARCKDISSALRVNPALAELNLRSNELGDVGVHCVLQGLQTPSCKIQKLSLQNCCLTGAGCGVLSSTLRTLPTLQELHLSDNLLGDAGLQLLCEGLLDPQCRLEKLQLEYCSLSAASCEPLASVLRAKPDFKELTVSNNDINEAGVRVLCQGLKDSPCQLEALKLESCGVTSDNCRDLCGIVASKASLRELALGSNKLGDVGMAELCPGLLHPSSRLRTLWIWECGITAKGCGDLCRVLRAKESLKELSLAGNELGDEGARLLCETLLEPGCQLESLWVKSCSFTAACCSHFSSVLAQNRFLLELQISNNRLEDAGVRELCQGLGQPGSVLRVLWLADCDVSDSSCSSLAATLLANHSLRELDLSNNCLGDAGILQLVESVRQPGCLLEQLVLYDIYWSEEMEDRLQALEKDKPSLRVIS
# UniProt Q13464: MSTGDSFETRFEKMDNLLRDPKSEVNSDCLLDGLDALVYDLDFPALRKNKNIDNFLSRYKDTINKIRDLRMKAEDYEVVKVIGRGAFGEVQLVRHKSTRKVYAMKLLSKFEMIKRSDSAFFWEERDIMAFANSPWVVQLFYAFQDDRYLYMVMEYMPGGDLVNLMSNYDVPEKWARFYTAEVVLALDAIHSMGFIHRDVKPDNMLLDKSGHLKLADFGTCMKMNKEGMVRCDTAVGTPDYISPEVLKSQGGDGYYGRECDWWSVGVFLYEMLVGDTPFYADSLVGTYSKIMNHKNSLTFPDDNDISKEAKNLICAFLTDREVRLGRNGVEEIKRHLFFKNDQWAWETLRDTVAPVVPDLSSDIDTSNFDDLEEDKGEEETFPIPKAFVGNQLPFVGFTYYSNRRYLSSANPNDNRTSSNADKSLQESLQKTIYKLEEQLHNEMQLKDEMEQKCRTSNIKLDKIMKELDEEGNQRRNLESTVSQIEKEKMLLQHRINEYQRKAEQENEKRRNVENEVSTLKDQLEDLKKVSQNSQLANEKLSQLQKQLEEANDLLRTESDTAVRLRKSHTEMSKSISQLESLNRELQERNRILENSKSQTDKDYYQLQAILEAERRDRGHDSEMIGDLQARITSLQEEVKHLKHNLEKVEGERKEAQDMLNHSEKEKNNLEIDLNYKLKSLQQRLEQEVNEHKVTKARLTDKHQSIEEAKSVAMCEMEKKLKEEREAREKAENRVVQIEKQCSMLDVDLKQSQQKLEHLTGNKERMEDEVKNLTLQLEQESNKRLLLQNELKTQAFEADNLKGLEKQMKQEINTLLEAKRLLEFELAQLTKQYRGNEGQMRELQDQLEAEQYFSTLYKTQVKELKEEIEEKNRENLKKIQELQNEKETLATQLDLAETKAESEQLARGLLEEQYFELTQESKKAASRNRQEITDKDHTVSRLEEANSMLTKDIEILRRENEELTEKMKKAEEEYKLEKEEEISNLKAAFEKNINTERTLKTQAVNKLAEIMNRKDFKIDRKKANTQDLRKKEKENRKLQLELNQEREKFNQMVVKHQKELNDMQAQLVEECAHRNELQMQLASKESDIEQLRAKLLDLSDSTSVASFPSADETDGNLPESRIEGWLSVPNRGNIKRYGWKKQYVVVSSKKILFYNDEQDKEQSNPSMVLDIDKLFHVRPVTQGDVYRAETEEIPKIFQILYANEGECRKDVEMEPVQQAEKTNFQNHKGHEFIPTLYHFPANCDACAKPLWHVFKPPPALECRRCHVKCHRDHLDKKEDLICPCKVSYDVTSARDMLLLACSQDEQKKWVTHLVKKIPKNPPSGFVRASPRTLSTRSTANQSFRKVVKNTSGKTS
# UniProt P78346: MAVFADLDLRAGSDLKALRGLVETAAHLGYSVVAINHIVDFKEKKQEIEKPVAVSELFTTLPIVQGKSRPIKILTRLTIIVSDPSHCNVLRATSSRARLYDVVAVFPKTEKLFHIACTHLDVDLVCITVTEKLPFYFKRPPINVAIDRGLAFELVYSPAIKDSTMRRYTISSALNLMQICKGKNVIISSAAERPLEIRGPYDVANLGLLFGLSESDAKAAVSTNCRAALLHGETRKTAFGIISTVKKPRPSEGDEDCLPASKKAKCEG
# UniProt O43148, whole entry, looked up: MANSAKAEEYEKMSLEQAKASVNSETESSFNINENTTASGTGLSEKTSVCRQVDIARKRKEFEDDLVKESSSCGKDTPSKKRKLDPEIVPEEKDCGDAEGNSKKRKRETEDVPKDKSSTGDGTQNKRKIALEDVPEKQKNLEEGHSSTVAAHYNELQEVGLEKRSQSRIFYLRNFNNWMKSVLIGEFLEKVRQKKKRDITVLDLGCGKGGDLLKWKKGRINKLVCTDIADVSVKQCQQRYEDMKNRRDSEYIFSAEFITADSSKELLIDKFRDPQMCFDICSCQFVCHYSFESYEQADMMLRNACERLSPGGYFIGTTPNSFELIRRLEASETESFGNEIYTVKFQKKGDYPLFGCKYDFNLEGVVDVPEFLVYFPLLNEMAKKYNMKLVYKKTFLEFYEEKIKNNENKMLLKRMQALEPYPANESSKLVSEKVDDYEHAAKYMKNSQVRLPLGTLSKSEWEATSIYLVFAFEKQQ
# UniProt O75818: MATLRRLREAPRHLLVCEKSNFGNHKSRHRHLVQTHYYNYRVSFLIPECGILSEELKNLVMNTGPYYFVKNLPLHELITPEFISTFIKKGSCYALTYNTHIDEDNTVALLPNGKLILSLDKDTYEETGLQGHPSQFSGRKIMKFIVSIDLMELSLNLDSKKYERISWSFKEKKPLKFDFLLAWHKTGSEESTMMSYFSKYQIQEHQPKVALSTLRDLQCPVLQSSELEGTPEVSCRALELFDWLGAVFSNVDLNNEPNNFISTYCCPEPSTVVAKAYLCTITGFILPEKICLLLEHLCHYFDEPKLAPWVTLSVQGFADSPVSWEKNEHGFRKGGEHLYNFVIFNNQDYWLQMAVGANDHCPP
# UniProt Q99496: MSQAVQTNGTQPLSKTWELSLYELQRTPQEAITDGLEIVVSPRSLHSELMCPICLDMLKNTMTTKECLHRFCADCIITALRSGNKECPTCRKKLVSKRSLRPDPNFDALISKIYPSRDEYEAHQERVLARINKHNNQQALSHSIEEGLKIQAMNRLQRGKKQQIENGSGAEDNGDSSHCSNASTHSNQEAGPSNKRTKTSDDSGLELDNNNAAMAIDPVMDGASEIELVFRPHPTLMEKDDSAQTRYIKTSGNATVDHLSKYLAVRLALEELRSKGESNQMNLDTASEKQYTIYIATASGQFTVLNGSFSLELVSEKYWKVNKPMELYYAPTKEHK
# UniProt Q9H4P4: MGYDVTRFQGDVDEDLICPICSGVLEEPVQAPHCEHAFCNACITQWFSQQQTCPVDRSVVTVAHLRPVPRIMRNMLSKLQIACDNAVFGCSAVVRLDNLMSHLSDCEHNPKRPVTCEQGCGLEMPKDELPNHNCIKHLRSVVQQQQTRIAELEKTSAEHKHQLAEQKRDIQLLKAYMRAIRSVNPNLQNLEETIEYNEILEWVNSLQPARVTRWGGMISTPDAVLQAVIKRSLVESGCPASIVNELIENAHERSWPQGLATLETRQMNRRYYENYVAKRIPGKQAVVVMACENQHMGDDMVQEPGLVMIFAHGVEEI
# UniProt Q96AT9: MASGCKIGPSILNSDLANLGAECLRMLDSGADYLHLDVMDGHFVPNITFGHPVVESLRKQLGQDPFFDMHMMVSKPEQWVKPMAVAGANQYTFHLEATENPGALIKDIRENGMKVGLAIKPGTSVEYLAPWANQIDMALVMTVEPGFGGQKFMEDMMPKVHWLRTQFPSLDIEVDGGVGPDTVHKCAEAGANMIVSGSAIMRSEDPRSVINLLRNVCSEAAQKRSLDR
# Compound: Cc1cc(ccc1-c1ccccc1)C(=O)N1CCCN(CC1)C(=O)CCl [compound 10]
# Assay: probe-labelled cysteine peptide fold change vs DMSO (competition) (log2 fold change); higher = less target engagement (more negative = stronger competition)
# Settings: THP-1, incubation time: 4 h
# 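Note: competitive profiling in live THP-1 cells: cysteine peptides tagged with an iodoacetamide desthiobiotin (IA-DTB) probe, intensity after compound treatment relative to DMSO-treated cells.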
Target,probe-labelled cysteine peptide fold change (10 µM),probe-labelled cysteine peptide fold change (50 µM)
RNGTT_O60942_261_CHQFCGWEGSGFPGAQPVSMDK (UniProt O60942),-0.215,-0.34
RPN1_P04843_477_VACITEQVLTLVNKR (UniProt P04843),-0.189,-0.7
RPN1_P04843_545_LKTEGSDLCDR (UniProt P04843),-0.0348,-0.441
RPL18A_Q02543_109_DLTTAGAVTQCYR (UniProt Q02543),0.0363,-0.00452
RNF20_Q5VTR2_344_LCELEK (UniProt Q5VTR2),-0.0912,-0.233
RNF213_Q63HN8_1796_CLPAFLPDCLDLETLGHCLAHLAGMGGSPVER (UniProt Q63HN8),0.473,0.152
RPA3_P35244_26_INAGMLAQFIDKPVCFVGR (UniProt P35244),-0.0236,-0.0387
RPP38_P78345_176_CVLALAFK (UniProt P78345),0.104,-0.0388
RPL4_P36578_250_FCIWTESAFRK (UniProt P36578),-0.0922,-0.377
RPL12_P30050_141_EILGTAQSVGCNVDGR (UniProt P30050),0.117,0.0259
RPL10A_P62906_74_FSVCVLGDQQHCDEAK (UniProt P62906),0.354,-0.0711
RNH1_P13489_409_ELDLSNNCLGDAGILQLVESVR (UniProt P13489),0.0663,0.162
ROCK1_Q13464_714_SVAMCEMEK (UniProt Q13464),-0.131,-0.304
RPL37A_P61513_57_AVGIWHCGSCMK (UniProt P61513),-0.1,-0.185
RNF20_Q5VTR2_945_CFHVFCFECVK (UniProt Q5VTR2),0.148,0.36
RPL30_P62888_92_VCTLAIIDPGDSDIIR (UniProt P62888),0.194,-0.0287
RPL17_P18621_57_QCVPFR (UniProt P18621),-0.201,0.118
RPN1_P04843_477_VACITEQVLTLVNK (UniProt P04843),-0.0657,-0.431
RNH1_P13489_38_LDDCGLTEAR (UniProt P13489),-0.188,-0.197
RPL37A_P61513_60_AVGIWHCGSCMK (UniProt P61513),-0.0854,0.018
RNPEP_Q9H4A4_85_CLEPEGAAELRLDSHPCLEVTAAALR (UniProt Q9H4A4),-0.347,-0.53
RPP30_P78346_225_AAVSTNCR (UniProt P78346),-0.0798,0.122

Target,probe-labelled cysteine peptide fold change (10 µM),probe-labelled cysteine peptide fold change (50 µM)
RPL18_Q07020_134_GCGTVLLSGPR (UniProt Q07020),-0.0564,-0.419
RPAP1_Q9BWH6_185_GPSVGEVVPNVGPPEGAVTCETPTPR (UniProt Q9BWH6),0.902,1.33
RNF20_Q5VTR2_905_CDEILMEEIK (UniProt Q5VTR2),-0.192,-0.151
RNMT_O43148_356_KGDYPLFGCK (UniProt O43148),0.107,0.29
RPP40_O75818_49_VSFLIPECGILSEELK (UniProt O75818),0.0474,0.381
RNF2_Q99496_75_FCADCIITALR (UniProt Q99496),0.253,-0.167
RNF213_Q63HN8_2868_TLHPLLEDGCIEDDPAPHK (UniProt Q63HN8),-0.295,0.0533
RPL11_P62913_150_TGCIGAK (UniProt P62913),-0.0968,-0.152
RNMT_O43148_95_DCGDAEGNSK (UniProt O43148),-0.101,-0.0535
RPL30_P62888_52_LVILANNCPALR (UniProt P62888),-0.136,0.128
RNF41_Q9H4P4_106_LDNLMSHLSDCEHNPK (UniProt Q9H4P4),0.0417,-0.165
RPL3_P39023_336_GCVVGTK (UniProt P39023),-0.0479,0.152
RNF20_Q5VTR2_924_LTCPCCNMR (UniProt Q5VTR2),-0.0123,-0.0976
RNF213_Q63HN8_310_THCQEAETK (UniProt Q63HN8),-0.101,-0.406
RP2_O75695_147_FGCFQWYYPELAFQFK (UniProt O75695),0.168,0.271
RNH1_P13489_220_DLCGIVASK (UniProt P13489),-0.0742,-0.16
RNH1_P13489_313_LLCETLLEPGCQLESLWVK (UniProt P13489),0.0722,0.0415
RNH1_P13489_85_SNELGDVGVHCVLQGLQTPSCK (UniProt P13489),0.00935,-0.0856
RPE_Q96AT9_23_IGPSILNSDLANLGAECLR (UniProt Q96AT9),0.198,-0.0733
RPL7A_P62424_182_MGVPYCIIK (UniProt P62424),0.17,-0.0867
RPA1_P27694_476_ENCMYQACPTQDCNK (UniProt P27694),0.0438,0.371
ROCK2_O75116_1274+1277_GHEFIPTLYHFPTNCEACMK (UniProt O75116),-0.215,-0.29

# Full records as entered above. Order of values: probe-labelled cysteine peptide fold change (10 µM)	probe-labelled cysteine peptide fold change (50 µM)
# RNF41_Q9H4P4_106_LDNLMSHLSDCEHNPK (UniProt Q9H4P4) is entered as 0.0417	-0.165
# RPN1_P04843_477_VACITEQVLTLVNK (UniProt P04843) is entered as -0.0657	-0.431

# — the supplement of paper PMC12067093, “Discovery and optimisation of a covalent ligand for TRIM25 and its application to targeted protein ubiquitination” (Chemical Science, 2025)
